## Results of single-concentration screens

By UniProt entry, the sequences of proteins in these tests, tags left out.
UniProt P9WPC5, whole entry: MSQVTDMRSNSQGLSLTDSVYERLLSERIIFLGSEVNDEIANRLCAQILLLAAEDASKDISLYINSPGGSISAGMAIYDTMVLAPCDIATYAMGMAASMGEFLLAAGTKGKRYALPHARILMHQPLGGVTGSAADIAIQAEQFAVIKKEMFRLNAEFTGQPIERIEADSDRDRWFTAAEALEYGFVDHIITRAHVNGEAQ
UniProt P9WPC3, whole entry partner: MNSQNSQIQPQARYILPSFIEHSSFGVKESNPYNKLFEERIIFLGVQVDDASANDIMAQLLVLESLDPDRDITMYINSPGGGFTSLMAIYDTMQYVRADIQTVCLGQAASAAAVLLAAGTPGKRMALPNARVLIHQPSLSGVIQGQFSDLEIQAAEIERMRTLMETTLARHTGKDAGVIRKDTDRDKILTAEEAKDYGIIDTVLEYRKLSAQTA
UniProt I6X8D2, whole entry: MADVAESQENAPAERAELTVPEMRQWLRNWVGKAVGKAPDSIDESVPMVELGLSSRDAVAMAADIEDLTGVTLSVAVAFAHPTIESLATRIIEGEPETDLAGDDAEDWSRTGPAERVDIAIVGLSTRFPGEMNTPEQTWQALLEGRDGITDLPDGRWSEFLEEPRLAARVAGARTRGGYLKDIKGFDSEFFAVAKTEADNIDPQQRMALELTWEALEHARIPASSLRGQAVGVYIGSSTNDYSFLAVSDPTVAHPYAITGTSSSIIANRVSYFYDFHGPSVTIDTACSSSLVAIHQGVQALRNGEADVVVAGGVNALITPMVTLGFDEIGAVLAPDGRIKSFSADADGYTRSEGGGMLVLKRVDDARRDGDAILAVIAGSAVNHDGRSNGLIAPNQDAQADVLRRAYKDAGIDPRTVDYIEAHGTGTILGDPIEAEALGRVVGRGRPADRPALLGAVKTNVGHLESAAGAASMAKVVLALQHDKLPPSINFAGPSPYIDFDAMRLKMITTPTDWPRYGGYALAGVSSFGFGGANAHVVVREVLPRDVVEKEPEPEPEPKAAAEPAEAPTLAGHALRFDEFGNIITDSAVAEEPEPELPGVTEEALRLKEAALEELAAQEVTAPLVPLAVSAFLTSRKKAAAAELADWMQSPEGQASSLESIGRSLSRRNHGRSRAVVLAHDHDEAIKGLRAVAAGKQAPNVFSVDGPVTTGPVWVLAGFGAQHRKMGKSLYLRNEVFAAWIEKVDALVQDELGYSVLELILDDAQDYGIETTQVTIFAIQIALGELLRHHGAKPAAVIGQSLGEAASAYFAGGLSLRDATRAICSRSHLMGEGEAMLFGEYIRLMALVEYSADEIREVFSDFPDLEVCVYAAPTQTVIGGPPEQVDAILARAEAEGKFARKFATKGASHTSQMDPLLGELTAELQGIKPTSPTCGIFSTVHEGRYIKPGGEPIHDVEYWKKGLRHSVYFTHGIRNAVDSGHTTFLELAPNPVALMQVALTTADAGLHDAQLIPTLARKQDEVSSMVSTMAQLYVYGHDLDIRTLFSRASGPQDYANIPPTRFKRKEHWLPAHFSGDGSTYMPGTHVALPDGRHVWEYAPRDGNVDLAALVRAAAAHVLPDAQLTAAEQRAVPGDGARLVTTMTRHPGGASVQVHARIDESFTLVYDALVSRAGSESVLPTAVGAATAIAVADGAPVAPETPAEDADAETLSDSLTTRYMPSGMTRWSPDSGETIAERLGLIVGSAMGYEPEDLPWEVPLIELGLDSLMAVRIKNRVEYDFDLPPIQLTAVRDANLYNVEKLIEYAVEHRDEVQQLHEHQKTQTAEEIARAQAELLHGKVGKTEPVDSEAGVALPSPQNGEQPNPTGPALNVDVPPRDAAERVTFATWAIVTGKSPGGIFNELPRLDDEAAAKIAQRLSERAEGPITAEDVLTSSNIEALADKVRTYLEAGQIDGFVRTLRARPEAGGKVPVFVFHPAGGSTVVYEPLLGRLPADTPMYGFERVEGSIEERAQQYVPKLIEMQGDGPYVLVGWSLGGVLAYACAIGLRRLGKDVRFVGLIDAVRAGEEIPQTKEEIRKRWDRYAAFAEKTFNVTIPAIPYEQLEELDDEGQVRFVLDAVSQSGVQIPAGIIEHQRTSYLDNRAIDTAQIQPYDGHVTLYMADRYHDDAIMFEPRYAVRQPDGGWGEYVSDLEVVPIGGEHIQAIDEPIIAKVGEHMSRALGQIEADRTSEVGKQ

The values are deposited in ChEMBL (CHEMBL3988442, “University of Dundee, Small-Polar-MMV Screening Library” (2021)).

ClpP1P2: 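Protease assay of ClpP1P2, read by the AMC dye that it sets free. Target: ClpP1P2, Mycobacterium tuberculosis (UniProt P9WPC5 and UniProt P9WPC3). Compounds at 50 µM. Higher reads as stronger inhibition, judged from the few compounds that gave an IC50. Most other retested compounds had strongly negative values. Size under these conditions: about 69,000 compounds, about 10 of them at 50% or above in at least one test.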
Pks13 thioesterase: 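Enzyme assay of the thioesterase domain of polyketide synthase 13; the read-out is not stated. Target: Polyketide synthase Pks13, Mycobacterium tuberculosis (UniProt I6X8D2). Concentration: 30 µM. Higher reads as stronger inhibition (inferred from which compounds were picked for retests). Of about 67,000 compounds tested this way, about 300 (0.46%) reached 50% or more in at least one test.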

Results are given as percent effect. The record does not define 0% and 100%; most values in the screen are far below 50% and negative numbers occur (in some assays of this library far below -100). Compounds were drawn at random from those tested, without regard to their results.

{"compound": "Cc1noc(C)c1-c1ccnc(C2CCNCC2)c1", "ClpP1P2": -5.36, "Pks13 thioesterase": -0.6881}
{"compound": "CN(C)C(=O)N1C[C@H](Oc2ccccn2)[C@H]2OCCC[C@H]21", "ClpP1P2": -10.83, "Pks13 thioesterase": -3.181}
{"compound": "CCOc1ccccc1CCC(=O)Nc1c(C)nn(C)c1C", "ClpP1P2": -14.48, "Pks13 thioesterase": -11.49}
{"compound": "CS(=O)(=O)N1Cc2ccnn2CC(C(=O)NCc2cccnc2)C1", "stereo": "centres undefined", "ClpP1P2": 17.15, "Pks13 thioesterase": -4.803}
{"compound": "COc1ccc2c(c1)NC(=O)C2OC(=O)CCc1ccc(F)cc1", "stereo": "centres undefined", "ClpP1P2": 0.7341, "Pks13 thioesterase": -14.58}
{"compound": "Cc1cc(CN(C)CC2CCCCC2)no1", "ClpP1P2": -11.46, "Pks13 thioesterase": -38.32}
{"compound": "COc1ccc(OC2CCN(Cc3ccn(C)c(=O)c3)CC2)cc1", "ClpP1P2": -12.55, "Pks13 thioesterase": -10.57}
{"compound": "CCSc1ccc(C(=O)Nc2c(C)nn(C(C)C)c2C)cn1", "ClpP1P2": -7.396, "Pks13 thioesterase": -2.833}
{"compound": "COCCCN(C)C(=O)c1cccc(Nc2cnccn2)c1", "ClpP1P2": -30.71, "Pks13 thioesterase": -3.821}
{"compound": "Cc1ocnc1C(=O)N[C@H]1CN(CC2CCC2)C[C@@H]1C(C)C", "ClpP1P2": -1.95, "Pks13 thioesterase": -20.4}
{"compound": "COCCC(=O)NCc1ccc(-c2ccccc2C(=O)O)nc1", "ClpP1P2": -10.06, "Pks13 thioesterase": -7.505}
{"compound": "Cc1noc(C2CCCN(C(=O)CCCNc3ncccn3)C2)n1", "stereo": "centres undefined", "ClpP1P2": -10.39, "Pks13 thioesterase": -16.28}
{"compound": "Cc1cccnc1CN1CCN(C(=O)[C@@]23CNC[C@@H]2CN(C)C3)CC1", "ClpP1P2": -2.171, "Pks13 thioesterase": -3.15}
{"compound": "CC(=O)N1C[C@H]2CNC[C@@]2(C(=O)NCCNc2ccncc2C)C1", "ClpP1P2": -8.228, "Pks13 thioesterase": -33.46}
{"compound": "Cc1nc(C)n(CC2CCCCN2Cc2ncc(C(C)(C)C)o2)n1", "stereo": "centres undefined", "ClpP1P2": 20.1, "Pks13 thioesterase": -20.07}
{"compound": "NCC1CCCN(c2nc(-c3ccccc3)nc3c2CCNCC3)C1", "stereo": "centres undefined", "ClpP1P2": -25.26, "Pks13 thioesterase": -10.55}
{"compound": "CNc1cc(N2CCCC2CNCc2cccnc2C)ncn1", "stereo": "centres undefined", "ClpP1P2": -20.7, "Pks13 thioesterase": -10.53}
{"compound": "CCS(=O)(=O)N1Cc2nccn2CC(COc2cccnc2)C1", "stereo": "centres undefined", "ClpP1P2": 0.0791, "Pks13 thioesterase": -25.16}
{"compound": "CC(=O)N(Cc1ncc(C)o1)C1CCN(Cc2cnc(C)s2)C1", "stereo": "centres undefined", "ClpP1P2": 5.569, "Pks13 thioesterase": 0.3805}
{"compound": "CCn1nc(CNC(C)(C)CO)c(-c2ccccc2)n1", "ClpP1P2": -7.148, "Pks13 thioesterase": -19}
{"compound": "Cc1nc(C(C)(C)C)sc1C(=O)NCCn1cccn1", "ClpP1P2": 6.446, "Pks13 thioesterase": -5.324}
{"compound": "O=S(=O)(c1ccccc1Cl)N1CCC2(CC1)OCCS2", "ClpP1P2": -16.73, "Pks13 thioesterase": -1.498}
{"compound": "CC(C)=CCN1CCOC(Cn2nc(C)cc2C)C1", "stereo": "centres undefined", "ClpP1P2": 23.29, "Pks13 thioesterase": -5.177}
{"compound": "Cc1cccc(CN2C[C@@H]3CN(C(=O)c4ccco4)C[C@@H]3C2=O)c1", "ClpP1P2": 6.112, "Pks13 thioesterase": -32.46}
{"compound": "O=C(Nc1ccccc1)c1n[nH]c(-n2cnnc2)n1", "ClpP1P2": 15.26, "Pks13 thioesterase": -11.68}
{"compound": "O=C(CN1CC(c2nc(-c3ccco3)no2)C1)NCC1CCCO1", "stereo": "centres undefined", "ClpP1P2": -4.729, "Pks13 thioesterase": 1.482}
{"compound": "NC(=O)N1CCC2(CCN(Cc3cccc(F)c3)CC2)CC1", "ClpP1P2": 13.12, "Pks13 thioesterase": -8.316}
{"compound": "CCc1nnc2n1CCN(Cc1csc(-c3ccsc3)n1)C2", "ClpP1P2": -8.047, "Pks13 thioesterase": -9.314}
{"compound": "CNC(=O)COc1cccc(CNC(=O)c2c(C)noc2C)c1", "ClpP1P2": -3.557, "Pks13 thioesterase": 1.127}

For reference, 3 entries once more:

Compound,ClpP1P2,Pks13 thioesterase
NC(=O)N1CCC2(CCN(Cc3cccc(F)c3)CC2)CC1,13.12%,-8.316%
CN(C)C(=O)N1C[C@H](Oc2ccccn2)[C@H]2OCCC[C@H]21,-10.83%,-3.181%
CNc1cc(N2CCCC2CNCc2cccnc2C)ncn1 (centres undefined),-20.7%,-10.53%